No constants are given. Whether binding was seen depends on the method and setting. In cells and extracts the contact can be indirect. Some entries that bind do so weakly or less than the wild type.
Legend:
[1] = target: BAG3 (form in the experiment not stated) (UniProt O95817); test: co-IP; HEK293 transfected with the indicated plasmids; treated with MG132 (Fig. 4B, D, E) or not (Fig. 4B, F, G); immunoprecipitation with the indicated antibody; NP-40 alternative lysis buffer, 4 °C
[2] = target: BAG3 (S173/S377/S386D)-4FLAG (UniProt O95817); test: co-IP; BAG3-/- HEK293 transiently re-expressing wild-type or mutated BAG3-FLAG; treated with MG132; immunoprecipitated with anti-FLAG antibody; HRI detected by blot
BAG3-4FLAG (wild type) [3] = target: BAG3-4FLAG (wild type) (UniProt O95817); test: as above
[4] = target: B-cell lymphoma 2 (Bcl-2)-associated athanogene 3 (BAG3), endogenous (human (endogenous in HEK293)) (UniProt O95817); test: co-IP; endogenous BAG3 and HRI in HEK293 lysate; cells treated with proteasome inhibitor with or without KN-93; NP-40 alternative lysis buffer, 4 °C
BAG3-4FLAG (wild type) [5] = target: BAG3-4FLAG (wild type) (UniProt O95817); test: co-IP; HEK293 transfected, with overexpressed wild-type CaMKIIβ or kinase-dead CaMKIIβ (K43M); treated with MG132; immunoprecipitated with anti-FLAG antibody

Amino acid sequences for entries named in this document (tags omitted). A change or cut given only in a name is not applied to a line headed by its entry. Chains listed by the source or under a name are the forms on record and can include a tag or linker.
UniProt O95817: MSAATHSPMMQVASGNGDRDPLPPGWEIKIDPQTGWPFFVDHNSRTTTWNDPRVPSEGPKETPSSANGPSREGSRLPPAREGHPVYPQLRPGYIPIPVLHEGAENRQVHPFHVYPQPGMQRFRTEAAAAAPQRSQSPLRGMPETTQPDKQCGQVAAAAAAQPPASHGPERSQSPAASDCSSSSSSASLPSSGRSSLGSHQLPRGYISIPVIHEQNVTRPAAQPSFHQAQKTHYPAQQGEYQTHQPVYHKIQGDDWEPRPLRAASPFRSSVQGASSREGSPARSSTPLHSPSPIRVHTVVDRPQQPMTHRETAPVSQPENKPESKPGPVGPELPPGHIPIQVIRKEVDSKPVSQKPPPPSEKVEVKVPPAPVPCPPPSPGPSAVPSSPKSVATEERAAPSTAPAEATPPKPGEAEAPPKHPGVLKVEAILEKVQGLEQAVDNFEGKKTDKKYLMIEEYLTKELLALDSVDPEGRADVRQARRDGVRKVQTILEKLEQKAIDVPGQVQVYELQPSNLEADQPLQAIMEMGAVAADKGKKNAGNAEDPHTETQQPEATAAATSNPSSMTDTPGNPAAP
BAG3 (S173/S377/S386D)-4FLAG (O95817, form named): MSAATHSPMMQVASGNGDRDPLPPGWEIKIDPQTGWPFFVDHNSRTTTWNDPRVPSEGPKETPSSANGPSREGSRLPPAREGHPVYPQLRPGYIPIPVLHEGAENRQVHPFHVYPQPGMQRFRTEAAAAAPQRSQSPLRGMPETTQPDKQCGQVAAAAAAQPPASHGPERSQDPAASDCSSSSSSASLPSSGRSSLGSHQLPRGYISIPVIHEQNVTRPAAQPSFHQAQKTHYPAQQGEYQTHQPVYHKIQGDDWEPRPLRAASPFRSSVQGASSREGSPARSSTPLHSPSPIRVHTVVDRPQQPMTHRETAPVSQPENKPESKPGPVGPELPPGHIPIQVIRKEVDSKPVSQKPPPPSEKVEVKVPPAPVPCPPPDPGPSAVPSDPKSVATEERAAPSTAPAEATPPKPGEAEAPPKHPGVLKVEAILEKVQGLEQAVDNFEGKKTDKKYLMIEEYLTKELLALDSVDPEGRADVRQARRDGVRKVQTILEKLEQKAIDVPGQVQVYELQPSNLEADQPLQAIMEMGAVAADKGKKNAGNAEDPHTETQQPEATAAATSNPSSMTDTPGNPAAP
CaMKIIβ (D-S), constitutively active kinase mutant (Q13554, form named): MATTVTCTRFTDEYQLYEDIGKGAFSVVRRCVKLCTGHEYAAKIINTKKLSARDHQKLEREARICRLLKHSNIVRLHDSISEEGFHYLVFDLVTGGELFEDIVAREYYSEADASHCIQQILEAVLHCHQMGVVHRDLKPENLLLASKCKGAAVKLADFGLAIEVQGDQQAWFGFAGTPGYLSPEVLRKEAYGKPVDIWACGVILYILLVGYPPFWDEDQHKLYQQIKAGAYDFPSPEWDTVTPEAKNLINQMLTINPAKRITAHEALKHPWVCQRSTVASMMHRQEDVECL
UniProt Q9BQI3: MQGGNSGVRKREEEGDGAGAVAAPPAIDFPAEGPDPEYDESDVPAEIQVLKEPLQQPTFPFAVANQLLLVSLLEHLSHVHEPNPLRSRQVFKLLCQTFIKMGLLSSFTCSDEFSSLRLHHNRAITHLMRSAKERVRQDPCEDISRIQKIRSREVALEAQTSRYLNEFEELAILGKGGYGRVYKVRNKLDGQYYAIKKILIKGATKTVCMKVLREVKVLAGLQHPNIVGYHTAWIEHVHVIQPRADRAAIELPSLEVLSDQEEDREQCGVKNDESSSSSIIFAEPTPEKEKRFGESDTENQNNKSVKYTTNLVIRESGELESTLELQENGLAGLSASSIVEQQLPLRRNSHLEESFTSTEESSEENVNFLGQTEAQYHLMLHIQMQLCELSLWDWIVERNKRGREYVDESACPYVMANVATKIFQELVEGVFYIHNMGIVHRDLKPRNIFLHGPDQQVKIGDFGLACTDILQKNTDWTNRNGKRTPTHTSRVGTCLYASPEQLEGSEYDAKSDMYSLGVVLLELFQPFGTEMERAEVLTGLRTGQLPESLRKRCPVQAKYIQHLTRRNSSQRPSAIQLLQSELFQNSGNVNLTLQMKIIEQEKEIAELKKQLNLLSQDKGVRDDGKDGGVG

Substance	binding [1]	binding [2]	binding (BAG3-4FLAG (wild type) [3])	binding [4]	binding (BAG3-4FLAG (wild type) [5])
CaMKIIβ (D-S), constitutively active kinase mutant (from UniProt Q13554 1-291) (domain or fragment)	binds	–	–	–	–
heme-regulated inhibitor (HRI), endogenous (from UniProt Q9BQI3 1-630) (enzyme)	–	binds	binds	binds	binds

From paper PMC11466968
